PubChem BioAssay AID504764 | Drosophila RNAi Screening Center, 2011
Purpose: 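Knock-downs that raise or lower a Notch target reporter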 (primary screen). Cell system: Drosophila Kc167 cells. Reagent: long dsRNA against Drosophila genes. Time to read-out: about 5 days (4 days dsRNA, then 24 h after transfection). Challenge: transfection of constitutively active membrane-tethered Notch lacking the extracellular domain, read 24 h later. Read-out: 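Light from a Notch-responsive E(spl)m3 luciferase reporter under active Notch, with control-promoter and no-Notch reporter wells to normalise; raw counts from paired wells a and b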. Scale: induced reporter light, run 1, well a and induced reporter light, run 1, well b: higher = more light from the Notch target reporter with active Notch; control promoter light, run 1, well a and control promoter light, run 1, well b: higher = more light from the viral control promoter (cell number, transfection, viability); uninduced reporter light, run 1, well a: higher = more light from the Notch target reporter without active Notch. Active means: 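Hit if the duplicate-averaged log2 ratio of induced to control-promoter light gives a plate-wise z beyond ±2, or induced to uninduced beyond ±1.8; weak-control or discordant-duplicate wells dropped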. Meaning of the calls: active = modifier hit (raised or lowered Notch signal); inactive = not a hit.
The deposit covers about 22,000 reagents; this is an unselected part of those that have a named target and a result. Over the whole deposit, 403 (1.9%) were called active. 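Unnormalised raw counts per well; ratio z-scores behind the hit calls and whether each hit raises or lowers signal are not deposited.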 Not given: the amount of reagent.

gene | dsRNA | induced reporter light, run 1, well a | induced reporter light, run 1, well b | control promoter light, run 1, well a | control promoter light, run 1, well b | uninduced reporter light, run 1, well a | call
GLS (Glutaminase) | DRSC07261 | 74145 | 90590 | 68890 | 63520 | 6382 | inactive
DCTN3-p24 (Dynactin 3, p24 subunit) | DRSC04592 | 1.71e5 | 1.73e5 | 1.45e5 | 2.12e5 | 12665 | inactive
CG11537 | DRSC08200 | 1.24e5 | 1.26e5 | 1.14e5 | 51715 | 11900 | inactive
alpha-Est4 (alpha-Esterase-4) | DRSC12616 | 88815 | 1.02e5 | 89965 | 70030 | 4660 | inactive
CG31689 | DRSC00734 | 1.11e5 | 1.05e5 | 88545 | 76360 | 8955 | inactive
CG7889 | DRSC20066 | 1.23e5 | 1.24e5 | 82025 | 64200 | 8430 | inactive
4E-T (eIF4E-Transporter) | DRSC17201 | 1.31e5 | 1.48e5 | 1.70e5 | 1.68e5 | 10855 | inactive
4E-T (eIF4E-Transporter) | DRSC17208 | 91940 | 1.08e5 | 1.81e5 | 1.58e5 | 8940 | inactive
CG14995 | DRSC08452 | 14620 | 17335 | 14470 | 7730 | 5995 | inactive
Pcd (pterin-4a-carbinolamine dehydratase) | DRSC16785 | 1.19e5 | 1.04e5 | 1.33e5 | 1.49e5 | 10332 | inactive
CG3091 | DRSC18274 | 1.35e5 | 1.22e5 | 2.68e5 | 2.35e5 | 10065 | inactive
Gr47b (Gustatory receptor 47b) | DRSC05275 | 2.05e5 | 2.34e5 | 2.53e5 | 2.83e5 | 23590 | inactive
flw (flapwing) | DRSC17992 | 63435 | 75325 | 66520 | 1.00e5 | 4760 | inactive
flw (flapwing) | DRSC18774 | 1.80e5 | 1.48e5 | 1.80e5 | 1.69e5 | 11310 | inactive

An excerpt from above, showing only “control promoter light, run 1, well a”.
CG11537 [DRSC08200]	1.14e5
alpha-Est4 (alpha-Esterase-4) [DRSC12616]	89965

Continued.
gene | dsRNA | induced reporter light, run 1, well a | induced reporter light, run 1, well b | control promoter light, run 1, well a | control promoter light, run 1, well b | uninduced reporter light, run 1, well a | call
Obsc (Obscurin) | DRSC04301 | 1.63e5 | 1.78e5 | 2.34e5 | 2.45e5 | 12055 | inactive
Obsc (Obscurin) | DRSC04302 | 1.84e5 | 1.47e5 | 1.45e5 | 1.49e5 | 13580 | inactive
Obsc (Obscurin) | DRSC04303 | 1.98e5 | 1.75e5 | 1.59e5 | 1.64e5 | 14470 | inactive
Obsc (Obscurin) | DRSC04430 | 1.44e5 | 1.51e5 | 1.49e5 | 1.54e5 | 11050 | inactive
mgr (merry-go-round) | DRSC16099 | 75590 | 55055 | 52740 | 43220 | 4715 | inactive
Pdp1 (PAR-domain protein 1) | DRSC08896 | 3442 | 3420 | 4600 | 3765 | 4495 | inactive
Pdp1 (PAR-domain protein 1) | DRSC08897 | 2078 | 1620 | 2430 | 2175 | 2535 | inactive
Pdp1 (PAR-domain protein 1) | DRSC11251 | 2.24e5 | 2.26e5 | 2.68e5 | 2.02e5 | 8940 | inactive
